Measurements taken from patent US20220064238A1, “Methods And Compositions For Modifying Transcription Factor Activity by Targeting The Human Mediator Complex Using Cell Penetrating Memetic Peptides And Methods of Treating Cancer Using The Same” (The Regents of the University of Colorado, a body corporate, priority 2020, published 2022).
At least one compound was matched to its structure with a doubt left. Bridge positions count the residues as written; N and C are the ends. Square brackets hold non-standard residues; d marks the D form. Peptide text beside a SMILES is read from it. PEG6 = NCCOCCOCCOCCOCCOCCOCCC(=O)O; R8 = C=CCCCCCC[C@@](C)(N)C(=O)O; S5 = C=CCCC[C@](C)(N)C(=O)O

Protein sequences, listed by entry. Tags and fused reporters are not part of them. Lines headed by an entry give the natural chain unless they say otherwise; changes in a name come on top.
UniProt Q9NVC6: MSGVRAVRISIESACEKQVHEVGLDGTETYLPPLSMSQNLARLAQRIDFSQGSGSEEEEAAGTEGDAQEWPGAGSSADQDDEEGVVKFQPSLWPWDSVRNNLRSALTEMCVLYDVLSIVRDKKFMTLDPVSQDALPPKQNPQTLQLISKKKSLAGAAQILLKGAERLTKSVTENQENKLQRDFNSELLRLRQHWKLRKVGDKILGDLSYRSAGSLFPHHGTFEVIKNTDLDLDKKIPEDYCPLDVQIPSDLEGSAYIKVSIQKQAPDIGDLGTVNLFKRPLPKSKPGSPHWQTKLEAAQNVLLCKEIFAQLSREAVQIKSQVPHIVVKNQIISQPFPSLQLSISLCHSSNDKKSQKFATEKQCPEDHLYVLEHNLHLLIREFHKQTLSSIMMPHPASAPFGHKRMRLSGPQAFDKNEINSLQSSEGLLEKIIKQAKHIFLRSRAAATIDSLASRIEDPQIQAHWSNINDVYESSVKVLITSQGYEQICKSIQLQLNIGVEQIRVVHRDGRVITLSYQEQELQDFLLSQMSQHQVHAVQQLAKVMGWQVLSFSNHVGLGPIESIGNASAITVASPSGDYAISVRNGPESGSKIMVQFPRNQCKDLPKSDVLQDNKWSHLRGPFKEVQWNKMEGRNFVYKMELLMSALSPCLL

Molecular target: T1, Gal4-p53AD / Mediator (Homo sapiens, UniProt Q9NVC6)
T1 construct: made in house
Experiment: In vitro transcription on chromatin templates activated by Gal4-p53AD
Assay type: biochemical
Conditions: read-out: IC50, transcription activated by Gal4-p53AD

CC[C@H](C)[C@H](NC(=O)[C@H](CC(=O)O)NC(=O)[C@H](CC(=O)O)NC(=O)[C@@H]1CCCN1C(=O)[C@H](CO)NC(=O)[C@H](CC(C)C)NC(=O)CCOCCOCCOCCOCCOCCOCCNC(=O)[C@H](CCCNC(=N)N)NC(=O)[C@H](CCCNC(=N)N)NC(=O)[C@]1(C)CCCC=CCCCCCC[C@@](C)(NC(=O)[C@H](Cc2ccccc2)NC(=O)[C@H](CCCNC(=N)N)NC(=O)[C@H](CCC(=O)O)NC(=O)[C@H](CCC(N)=O)NC(=O)[C@H](CO)NC(=O)[C@H](CCCNC(=N)N)NC(C)=O)C(=O)N[C@@H](CC(=O)O)C(=O)N[C@@H](CC(C)C)C(=O)N[C@@H](Cc2c[nH]c3ccccc23)C(=O)N[C@@H](CCCCN)C(=O)N[C@@H](CCCNC(=N)N)C(=O)N[C@@H](CC(C)C)C(=O)N1)C(=O)N[C@@H](CCC(=O)O)C(=O)N[C@@H](CCC(N)=O)C(=O)N[C@@H](Cc1c[nH]c2ccccc12)C(=O)N[C@@H](Cc1ccccc1)C(=O)N[C@H](C(=O)N[C@@H](CCC(=O)O)C(=O)N[C@@H](CC(=O)O)C(N)=O)[C@@H](C)O [bivalent peptide] (Ac-RSQERF[R8]DLWKRL[S5]RR[PEG6]LSPDDIEQWFTED-NH2; staple 7-14; N-terminus assumed)
IC50: 85 nM
